# Values of other authors in patent US6506876B1, “LTA4 hydrolase inhibitor pharmaceutical compositions and methods of use” (G.D. Searle & Co., priority 1994, dated 2003).
# For at least one compound, name, drawing or mass did not settle the structure.
# Target: LTB4 receptor
# Conditions: cited from earlier work
structure (smiles),measurement,setting,value
CCCCC/C=C\C[C@@H](O)/C=C/C=C/C=C\[C@@H](O)CCCC(=O)O [LTB4],affinity of high affinity binding site,"high affinity site, mediates chemotaxis and chemokinesis",4-5×10^−10
same,affinity of lower affinity binding sites,"lower affinity sites, stimulate granular secretion and oxidative burst",0.6-5×10^−7
